{"source": "PubChem BioAssay AID1259254 (NCATS, 2017)", "screen": "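Gene knock-downs that lead to re-replication, shown by excess G2 DNA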 (primary screen)", "cells": "human HCT116 colorectal cancer cells", "reagent": "single siRNA against human genes", "time to read-out": "3 days", "measurement": "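Imaged Hoechst DNA stain sorts each cell into a cycle phase by DNA amount; per plate, G2 fraction set to 0% for non-targeting and 100% for GMNN siRNA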", "scale": "G2 robust z-score: higher = more G2 cells, more excess DNA replication", "call rule": "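Active siRNAs have a G2 robust z of 5 or more median absolute deviations over the median, which in these data means about 38% or higher of GMNN control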", "note": "In all, the deposit lists about 59,000 reagents; this is a random part of them. Of all reagents, about 1,550 (2.6%) were called active. 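G2 share is only a proxy for re-replication; each gene was hit by three separate siRNAs, and active genes were retested.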 A number with no mark means an inactive call. The numbers tell different reagents against one gene apart. Further read-outs or replicates are left out here. The record does not give: the amount of reagent."}
{"gene knocked down": "GLB1", "siRNA no.": 1, "G2 robust z-score": -1.02}
{"gene knocked down": "GLB1", "siRNA no.": 2, "G2 robust z-score": 4.09}
{"gene knocked down": "GLB1", "siRNA no.": 3, "G2 robust z-score": -0.486}
{"gene knocked down": "CHRNA2", "siRNA no.": 1, "G2 robust z-score": -0.337}
{"gene knocked down": "CHRNA2", "siRNA no.": 2, "G2 robust z-score": 0.815}
{"gene knocked down": "CHRNA2", "siRNA no.": 3, "G2 robust z-score": -0.737}
{"gene knocked down": "PRDM10", "siRNA no.": 1, "G2 robust z-score": 0.249}
{"gene knocked down": "PRDM10", "siRNA no.": 2, "G2 robust z-score": -0.134}
{"gene knocked down": "PRDM10", "siRNA no.": 3, "G2 robust z-score": -0.349}
{"gene knocked down": "OR4C15", "siRNA no.": 1, "G2 robust z-score": 0.803}
{"gene knocked down": "OR4C15", "siRNA no.": 2, "G2 robust z-score": -0.866}
{"gene knocked down": "OR4C15", "siRNA no.": 3, "G2 robust z-score": 0.542}

Targets above whose target name begins with P or p (3):
{"gene knocked down": "PRDM10", "siRNA no.": 1, "G2 robust z-score": 0.249}
{"gene knocked down": "PRDM10", "siRNA no.": 2, "G2 robust z-score": -0.134}
{"gene knocked down": "PRDM10", "siRNA no.": 3, "G2 robust z-score": -0.349}
